Test results published in PubChem BioAssay AID2685 (National Center for Advancing Translational Sciences (NCATS), 2010).
The list shows a part of the results. Shown are side measurements of this screen, not its main read-out; they come without a call. Compounds called inactive in the main read-out are mostly missing here. Potencies come from curve fits of mixed quality, noted in brackets.

Experiment: qHTS Assay for Lipid Storage Modulators in Drosophila S3 Cells;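 on cell number change: cells counted by Cell Tracker Red CMTPX staining in the red channel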
Details: BODIPY lipid droplet fluorescence, 18-24 h; for cell number change: measured here: cell count max response, cells fed with added oleic acid
How it was run: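 Drosophila S3 cells loaded with oleic acid (400 uM, as added) and compounds at several concentrations; lipid droplets imaged by 488-nm laser-scanning cytometry, 500–530 nm intensity and object ratio to cell channel. Percent activity normalized to 20 uM Triacsin C.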

[1] = measured here: lipid fluorescence (Fed channel) AC50, cells fed with added oleic acid
[2] = measured here: cell number channel AC50, cells fed with added oleic acid

SMILES	AC50 [1]	cell number change	AC50 [2]
COc1ccccc1NCC(=O)c1ccc(Cl)cc1	6.51 µM [rising, single point]		
Cc1cccc(-n2ncc3c2CCCC3NC(=O)CCN2Cc3ccccc3C2=O)c1C (stereo unspecified)		-25.6%	3.66 µM [falling, full curve, poor fit]
CCN1CCN(c2nc(SC)nc3sc4c(c23)CC(C)(C)OC4)CC1			4.61 µM [rising, single point]
CC(=NCCN1CCN(C(C)=C2C(=O)c3ccccc3C2=O)CC1)C1=C(O)CC(C)(C)CC1=O		44.4%	29.1 µM [rising, single point]
CNC(=O)CN(C1CCCCC1)S(=O)(=O)c1ccc(OC)c(Cl)c1		-18.2%	5.8 µM [falling, single point]
CC(C)OCCCn1c(SC(C)C(=O)NCC2CCCO2)nc2cc(Cl)ccc2c1=O (stereo unspecified)		-23.4%	
C/C(=N\NC(=S)NC1CCCCC1)c1ccc(Cl)c(Cl)c1	0.13 µM [rising, full curve, poor fit]	2.72%	
Cc1ccc(S(=O)(=O)N2CCN(C(=O)c3c(-c4ccccc4)noc3C)CC2)cc1C	2.31 µM [rising, partial curve]	20.3%	
OC(COc1cccc2ccccc12)CN1CCN(c2ccccc2)CC1 (stereo unspecified)	16.4 µM [falling, partial curve]	-73.3%	14.6 µM [falling, partial curve]
c1csc(-c2nc(NCC3CCCO3)c3ccccc3n2)c1 (stereo unspecified)	6.51 µM [rising, single point]	15.5%	
COc1ccccc1CNC(=O)CSc1ccc(Br)cc1	3.66 µM [rising, full curve]	71%	11.6 µM [rising, single point]
COc1cc(C(=O)NNC(=O)C2CCC2)cc(OC)c1OC	0.517 µM [rising, full curve, poor fit]	8.36%	
CC1CCC(NC(=O)CN2C(=O)C3CCCN3c3ncc(Cl)cc32)CC1 (stereo unspecified)		218%	
Cc1cc(C)cc(NC(=O)N2CCC(C(=O)c3ccc(F)cc3)CC2)c1	0.651 µM [rising, single point]	6.95%	
CC(NC(=O)COc1ccc(S(=O)(=O)N2CCCC2)cc1)c1ccccc1 (stereo unspecified)	0.058 µM [falling, full curve, poor fit]	-1.68%	
CCNC(=S)Nc1ccc2cn[nH]c2c1		-5.14%	
CCOc1ccc(CCNC(=O)COC(=O)COc2cc(C)cc(C)c2)cc1OCC	3.26 µM [falling, full curve]	-25.8%	3.26 µM [falling, full curve, poor fit]
CC1Oc2ccccc2N(CC(=O)NCC2CCCO2)C1=O (stereo unspecified)	0.731 µM [rising, full curve, poor fit]	4.49%	
COc1ccc(N2CCN(C(=S)Nc3cc(C)ccc3C)CC2)cc1	5.17 µM [rising, full curve, poor fit]	4.6%	

SMILES	AC50 [1]	cell number change	AC50 [2]
CCOc1ccc(NC(=O)C2C(c3ccccc3)C2(Cl)Cl)cc1 (stereo unspecified)	1.3 µM [falling, full curve, poor fit]		
Cc1c(NC(=S)NC(=O)COc2ccccc2)c(=O)n(-c2ccccc2)n1C	6.51 µM [rising, partial curve, poor fit]		6.51 µM [rising, partial curve, poor fit]
Cc1ccc(CCNC(=O)c2cc(S(=O)(=O)N3CCCCC3)c[nH]2)cc1		-34.4%	23.1 µM [falling, single point]
NS(=O)(=O)c1ccc(CCNC(=O)c2cc(-c3ccc(Br)cc3)nc3ccccc23)cc1		9.23%	
COc1cccc(C(=O)c2c[nH]c(C(=O)NCc3cccs3)c2)c1			3.66 µM [rising, single point]
CN1C(=O)/C(=C\c2cccc(OCc3ccccc3)c2)SC1=S		2.78%	
CC1(C)CC(N=c2cc(-c3ccccc3)oc3ccc(Cl)cc23)CC(C)(C)N1	29.1 µM [falling, single point]	-54%	18.4 µM [falling, single point]
C=CCNC(=O)CSc1nc2sc(C)c(C)c2c(=O)[nH]1		-0.354%	
CCc1noc(C)c1C(=O)Nc1ccc(S(=O)(=O)N2CCCC(C)C2)cc1 (stereo unspecified)	0.00461 µM [falling, full curve, poor fit]	-15.1%	
COc1cc(C(=O)Oc2c(CN3CCOCC3)cc(Cl)c3cccnc23)cc(OC)c1OC	32.6 µM [falling, single point]	14.7%	
CCCN1CCN(CCCNC(=O)C2CCCN(c3nc4ccc(OCC)cc4s3)C2)CC1 (stereo unspecified)	29.1 µM [falling, single point]	-155%	18.4 µM [falling, single point]
O=C(OCC(=O)N1CCCC1=O)c1ccc(F)c(S(=O)(=O)N2CCOCC2)c1	29.1 µM [rising, single point]	-18.3%	
O=c1[nH]c(C2CCN(S(=O)(=O)Cc3ccccc3)CC2)nc2c1nnn2Cc1ccccc1Cl		21.4%	
COc1cc(NS(=O)(=O)c2ccc(NC(=S)NC(=O)c3ccc(Br)cc3)cc2)ncn1	0.206 µM [rising, partial curve]	17.2%	
N#CC(c1ccc(Cl)cc1)c1ccc2c(C(F)(F)F)cc(C(F)(F)F)nc2n1 (stereo unspecified)	16.4 µM [falling, single point]	-78.2%	18.4 µM [falling, partial curve]
CC(=O)Nc1ccc(C2(c3ccc(NC(C)=O)cc3)C(=O)Nc3ccccc32)cc1		22.1%	0.103 µM [falling, full curve, poor fit]
COc1ccc(Cn2c(=O)[nH]c3cc(OC)c(OC)cc3c2=O)cc1	0.461 µM [rising, full curve, poor fit]	43.8%	25.9 µM [rising, partial curve]
CC(NC(=O)CN(C)CC(=O)Nc1ccc(F)c(F)c1F)c1ccccc1 (stereo unspecified)		4.15%	
O=C(COC(=O)Cc1c(F)cccc1Cl)NCCC1=CCCCC1	0.058 µM [falling, full curve, poor fit]	0.445%	

Reprinted at random: two compounds from above.
SMILES	AC50 [1]	cell number change	AC50 [2]
O=C(COC(=O)Cc1c(F)cccc1Cl)NCCC1=CCCCC1	0.058 µM [falling, full curve, poor fit]	0.445%	
N#CC(c1ccc(Cl)cc1)c1ccc2c(C(F)(F)F)cc(C(F)(F)F)nc2n1 (stereo unspecified)	16.4 µM [falling, single point]	-78.2%	18.4 µM [falling, partial curve]
